The other results are listed elsewhere or left out.
Legend:
Test in all cases: log2 fold change, soluble protein after heating vs DMSO (PISA); higher = thermal stabilisation; K562 cells, 10 uM, 30 min; active = over 0.2 and 3.5 SD of the protein, either way, in both replicates (recomputed)
[1] = compound: COC1=CC=C(C=C1)CN2C=CC3=C2C=C(C=C3)C(=O)NO
Procedure, shortened: (§1)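 Quantification of soluble protein used TMTpro 16plex LC-MS/MS, with channel sums equalised. Samples were the supernatant after 21,000xg for 90 min of pooled aliquots from K562 cells (2×10^6 cells/mL) treated with 10 μM compound for 30 min, heated for 3 min over 48°C-58°C, and extracted in PBS with 0.5% NP-40 at 4°C. Values, from duplicates, describe thermal stability against control samples on a log2 fold-change scale.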

By UniProt entry, the sequences of proteins in these tests, tags left out. Where a name states a change or a piece, a line headed by the entry shows the natural chain unless it says otherwise.
UniProt O75600: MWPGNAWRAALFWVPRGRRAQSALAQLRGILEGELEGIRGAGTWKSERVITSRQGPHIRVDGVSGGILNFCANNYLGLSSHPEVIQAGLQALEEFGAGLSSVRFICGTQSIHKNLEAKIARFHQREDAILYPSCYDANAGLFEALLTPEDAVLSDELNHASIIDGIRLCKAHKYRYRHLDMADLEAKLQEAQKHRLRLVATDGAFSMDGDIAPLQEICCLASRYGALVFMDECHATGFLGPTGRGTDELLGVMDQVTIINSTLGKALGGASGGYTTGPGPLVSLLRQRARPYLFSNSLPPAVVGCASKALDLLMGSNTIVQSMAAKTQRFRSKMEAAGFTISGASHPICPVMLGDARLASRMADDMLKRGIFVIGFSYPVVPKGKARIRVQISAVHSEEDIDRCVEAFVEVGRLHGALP
UniProt Q96AE4: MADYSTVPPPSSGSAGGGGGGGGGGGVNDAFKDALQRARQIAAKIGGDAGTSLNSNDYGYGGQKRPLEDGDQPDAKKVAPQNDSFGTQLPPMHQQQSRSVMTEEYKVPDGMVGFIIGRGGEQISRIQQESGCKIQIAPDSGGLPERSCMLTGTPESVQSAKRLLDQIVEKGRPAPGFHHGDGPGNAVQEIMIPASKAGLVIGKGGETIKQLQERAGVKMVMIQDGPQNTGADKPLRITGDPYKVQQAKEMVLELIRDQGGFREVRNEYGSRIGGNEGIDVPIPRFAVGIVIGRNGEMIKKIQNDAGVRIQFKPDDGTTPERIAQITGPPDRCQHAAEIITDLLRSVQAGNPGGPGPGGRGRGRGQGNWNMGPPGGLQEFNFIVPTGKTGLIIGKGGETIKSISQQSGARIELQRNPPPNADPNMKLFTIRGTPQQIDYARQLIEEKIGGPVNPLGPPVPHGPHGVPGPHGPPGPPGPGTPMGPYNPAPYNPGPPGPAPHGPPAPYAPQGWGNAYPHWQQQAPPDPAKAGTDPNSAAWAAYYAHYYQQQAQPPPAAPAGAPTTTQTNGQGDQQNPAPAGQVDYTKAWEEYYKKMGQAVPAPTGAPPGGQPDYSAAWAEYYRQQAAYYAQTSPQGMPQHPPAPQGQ
UniProt Q9H0R8, whole entry, looked up: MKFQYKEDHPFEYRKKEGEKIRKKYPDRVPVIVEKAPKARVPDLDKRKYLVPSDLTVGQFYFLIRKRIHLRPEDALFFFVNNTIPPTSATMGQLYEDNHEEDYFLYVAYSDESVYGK
UniProt Q13480: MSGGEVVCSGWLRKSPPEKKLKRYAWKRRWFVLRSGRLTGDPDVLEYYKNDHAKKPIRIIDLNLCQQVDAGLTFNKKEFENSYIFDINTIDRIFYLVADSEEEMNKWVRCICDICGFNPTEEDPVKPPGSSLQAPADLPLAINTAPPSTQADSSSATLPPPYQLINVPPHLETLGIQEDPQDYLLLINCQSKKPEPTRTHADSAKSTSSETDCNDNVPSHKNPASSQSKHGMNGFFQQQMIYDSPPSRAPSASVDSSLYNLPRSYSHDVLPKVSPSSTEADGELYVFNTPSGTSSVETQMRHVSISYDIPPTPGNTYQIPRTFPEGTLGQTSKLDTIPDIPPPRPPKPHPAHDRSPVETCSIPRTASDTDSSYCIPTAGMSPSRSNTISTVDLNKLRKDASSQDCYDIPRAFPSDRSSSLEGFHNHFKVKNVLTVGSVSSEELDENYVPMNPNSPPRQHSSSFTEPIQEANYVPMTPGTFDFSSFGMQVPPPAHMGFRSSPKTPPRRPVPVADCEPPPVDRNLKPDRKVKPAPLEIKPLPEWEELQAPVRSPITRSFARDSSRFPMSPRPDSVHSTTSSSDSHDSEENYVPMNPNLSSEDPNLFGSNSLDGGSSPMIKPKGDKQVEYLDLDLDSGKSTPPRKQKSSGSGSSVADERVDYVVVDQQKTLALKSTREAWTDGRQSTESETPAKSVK
UniProt P51114, whole entry, looked up: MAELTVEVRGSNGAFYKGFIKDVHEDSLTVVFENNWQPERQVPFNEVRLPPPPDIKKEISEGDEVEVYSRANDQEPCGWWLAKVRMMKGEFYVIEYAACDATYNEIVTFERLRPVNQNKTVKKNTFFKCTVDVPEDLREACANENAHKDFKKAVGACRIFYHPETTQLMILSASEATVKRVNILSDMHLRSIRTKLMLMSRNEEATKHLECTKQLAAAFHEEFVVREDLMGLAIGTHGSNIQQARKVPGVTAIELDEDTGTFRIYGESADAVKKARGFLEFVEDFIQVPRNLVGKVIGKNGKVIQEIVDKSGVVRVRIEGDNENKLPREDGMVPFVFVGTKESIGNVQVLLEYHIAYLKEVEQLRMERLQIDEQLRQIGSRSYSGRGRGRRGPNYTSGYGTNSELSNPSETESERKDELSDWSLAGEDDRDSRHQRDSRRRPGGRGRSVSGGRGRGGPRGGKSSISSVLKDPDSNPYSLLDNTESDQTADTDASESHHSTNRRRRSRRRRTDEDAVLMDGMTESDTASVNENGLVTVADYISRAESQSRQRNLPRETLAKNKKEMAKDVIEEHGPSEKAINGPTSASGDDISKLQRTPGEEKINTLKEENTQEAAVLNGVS
UniProt Q9UJ14: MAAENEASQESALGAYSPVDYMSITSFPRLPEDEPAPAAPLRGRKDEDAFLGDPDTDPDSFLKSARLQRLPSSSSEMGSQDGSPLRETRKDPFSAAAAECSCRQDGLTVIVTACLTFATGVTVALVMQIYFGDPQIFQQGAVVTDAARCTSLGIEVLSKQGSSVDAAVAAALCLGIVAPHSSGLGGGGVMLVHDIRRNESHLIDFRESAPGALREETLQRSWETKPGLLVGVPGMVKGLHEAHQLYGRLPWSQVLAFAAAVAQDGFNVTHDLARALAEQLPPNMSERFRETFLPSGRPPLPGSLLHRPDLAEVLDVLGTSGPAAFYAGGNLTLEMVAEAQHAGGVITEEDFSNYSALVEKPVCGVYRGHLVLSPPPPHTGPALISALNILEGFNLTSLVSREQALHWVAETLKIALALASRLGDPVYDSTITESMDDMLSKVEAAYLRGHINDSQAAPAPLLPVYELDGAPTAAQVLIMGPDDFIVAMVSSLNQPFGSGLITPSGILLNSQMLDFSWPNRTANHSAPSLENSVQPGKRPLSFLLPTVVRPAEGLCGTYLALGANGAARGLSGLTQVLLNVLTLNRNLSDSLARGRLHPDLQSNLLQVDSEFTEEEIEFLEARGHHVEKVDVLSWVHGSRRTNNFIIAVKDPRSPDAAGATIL
UniProt P60520, whole entry, looked up: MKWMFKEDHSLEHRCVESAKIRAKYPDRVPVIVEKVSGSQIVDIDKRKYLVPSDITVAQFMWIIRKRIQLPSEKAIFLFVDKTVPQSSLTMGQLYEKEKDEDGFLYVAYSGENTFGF
UniProt Q01415: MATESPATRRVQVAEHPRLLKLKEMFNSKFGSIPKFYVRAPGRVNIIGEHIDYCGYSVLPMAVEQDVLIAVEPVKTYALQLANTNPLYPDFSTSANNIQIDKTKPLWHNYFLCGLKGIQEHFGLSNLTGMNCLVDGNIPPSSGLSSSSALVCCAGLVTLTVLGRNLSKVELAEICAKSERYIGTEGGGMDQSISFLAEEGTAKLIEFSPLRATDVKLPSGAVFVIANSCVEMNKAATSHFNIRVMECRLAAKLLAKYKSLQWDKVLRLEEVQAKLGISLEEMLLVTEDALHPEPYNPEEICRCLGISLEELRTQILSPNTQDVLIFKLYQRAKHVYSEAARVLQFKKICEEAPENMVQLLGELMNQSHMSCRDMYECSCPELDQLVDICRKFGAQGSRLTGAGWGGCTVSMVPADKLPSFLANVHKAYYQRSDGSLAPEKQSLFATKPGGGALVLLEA
UniProt Q9UJY5: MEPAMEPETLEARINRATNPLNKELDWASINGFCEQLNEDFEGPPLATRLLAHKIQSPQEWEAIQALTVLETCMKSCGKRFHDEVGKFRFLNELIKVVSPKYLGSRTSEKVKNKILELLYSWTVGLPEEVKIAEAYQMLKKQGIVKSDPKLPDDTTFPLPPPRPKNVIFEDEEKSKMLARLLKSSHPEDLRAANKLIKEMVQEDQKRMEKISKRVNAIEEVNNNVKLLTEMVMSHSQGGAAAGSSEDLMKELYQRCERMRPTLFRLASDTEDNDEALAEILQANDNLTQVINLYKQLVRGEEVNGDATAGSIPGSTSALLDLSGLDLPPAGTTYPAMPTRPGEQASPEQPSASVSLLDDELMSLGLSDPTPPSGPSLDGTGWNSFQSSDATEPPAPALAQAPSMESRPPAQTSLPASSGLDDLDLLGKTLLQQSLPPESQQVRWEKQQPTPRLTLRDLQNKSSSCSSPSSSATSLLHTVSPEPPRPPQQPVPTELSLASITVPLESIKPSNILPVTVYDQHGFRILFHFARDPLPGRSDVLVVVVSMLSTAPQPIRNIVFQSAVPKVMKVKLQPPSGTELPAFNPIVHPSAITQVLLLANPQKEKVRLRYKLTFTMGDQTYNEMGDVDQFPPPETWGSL
UniProt Q9H2C0: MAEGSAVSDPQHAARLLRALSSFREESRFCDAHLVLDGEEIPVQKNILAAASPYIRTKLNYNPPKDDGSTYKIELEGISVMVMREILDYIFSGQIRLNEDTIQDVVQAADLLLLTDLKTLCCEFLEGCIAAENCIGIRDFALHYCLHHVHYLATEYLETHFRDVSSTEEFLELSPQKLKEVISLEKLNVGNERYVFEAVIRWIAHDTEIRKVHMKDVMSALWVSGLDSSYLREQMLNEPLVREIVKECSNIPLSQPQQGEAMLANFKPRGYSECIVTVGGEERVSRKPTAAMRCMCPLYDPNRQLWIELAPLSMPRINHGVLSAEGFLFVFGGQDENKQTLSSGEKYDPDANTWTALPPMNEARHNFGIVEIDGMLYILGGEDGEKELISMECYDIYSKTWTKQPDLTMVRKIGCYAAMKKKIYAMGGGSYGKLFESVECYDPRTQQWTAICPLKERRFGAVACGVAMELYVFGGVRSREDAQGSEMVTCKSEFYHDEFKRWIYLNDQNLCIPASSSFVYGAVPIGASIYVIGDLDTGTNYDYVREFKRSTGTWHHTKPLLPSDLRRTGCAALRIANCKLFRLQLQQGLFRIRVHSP
UniProt Q92947: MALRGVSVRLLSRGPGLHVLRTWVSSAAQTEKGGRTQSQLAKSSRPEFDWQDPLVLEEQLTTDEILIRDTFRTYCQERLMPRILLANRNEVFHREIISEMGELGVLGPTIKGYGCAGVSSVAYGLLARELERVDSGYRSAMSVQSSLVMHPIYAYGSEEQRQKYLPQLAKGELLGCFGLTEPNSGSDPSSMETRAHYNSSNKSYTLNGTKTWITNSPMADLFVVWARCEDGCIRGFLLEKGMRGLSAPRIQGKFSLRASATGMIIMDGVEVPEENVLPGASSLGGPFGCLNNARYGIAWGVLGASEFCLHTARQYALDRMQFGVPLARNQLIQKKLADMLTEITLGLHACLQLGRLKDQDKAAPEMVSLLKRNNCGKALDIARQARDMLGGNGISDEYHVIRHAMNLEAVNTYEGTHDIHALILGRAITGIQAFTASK
UniProt P51116, whole entry, looked up: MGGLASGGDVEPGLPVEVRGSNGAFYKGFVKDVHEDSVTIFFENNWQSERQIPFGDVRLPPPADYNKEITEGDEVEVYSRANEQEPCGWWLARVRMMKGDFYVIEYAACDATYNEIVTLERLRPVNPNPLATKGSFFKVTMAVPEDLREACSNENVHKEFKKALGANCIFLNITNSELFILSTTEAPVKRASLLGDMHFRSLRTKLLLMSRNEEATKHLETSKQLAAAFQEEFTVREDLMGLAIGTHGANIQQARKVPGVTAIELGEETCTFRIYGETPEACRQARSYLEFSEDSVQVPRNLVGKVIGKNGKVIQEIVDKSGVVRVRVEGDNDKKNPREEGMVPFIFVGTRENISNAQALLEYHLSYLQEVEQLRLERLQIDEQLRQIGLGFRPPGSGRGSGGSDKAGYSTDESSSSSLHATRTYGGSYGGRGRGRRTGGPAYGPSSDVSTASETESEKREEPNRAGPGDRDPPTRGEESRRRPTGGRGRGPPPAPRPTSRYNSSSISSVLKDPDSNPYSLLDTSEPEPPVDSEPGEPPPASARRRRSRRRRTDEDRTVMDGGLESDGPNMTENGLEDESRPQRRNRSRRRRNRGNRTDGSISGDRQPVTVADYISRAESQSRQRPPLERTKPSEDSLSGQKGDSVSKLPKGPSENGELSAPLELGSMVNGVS

filanesib = compound: CON(C)C(=O)N1N=C(c2cc(F)ccc2F)S[C@@]1(CCCN)c1ccccc1 [filanesib]
Procedure, shortened: as §1

zotarolimus = compound: CO[C@H]1C[C@@H]2CC[C@@H](C)[C@@](O)(O2)C(=O)C(=O)N2CCCC[C@H]2C(=O)O[C@H]([C@H](C)C[C@@H]2CC[C@H](n3cnnn3)[C@H](OC)C2)CC(=O)[C@H](C)/C=C(\C)[C@@H](O)[C@@H](OC)C(=O)[C@H](C)C[C@H](C)/C=C/C=C/C=C/1C [zotarolimus]
Procedure, shortened: as §1

idasanutlin = compound: COc1cc(C(=O)O)ccc1NC(=O)[C@@H]1N[C@@H](CC(C)(C)C)[C@](C#N)(c2ccc(Cl)cc2F)[C@H]1c1cccc(Cl)c1F [idasanutlin]
Procedure, shortened: as §1

alisertib = compound: COc1cc(Nc2ncc3c(n2)-c2ccc(Cl)cc2C(c2c(F)cccc2OC)=NC3)ccc1C(=O)O [alisertib]
Procedure, shortened: as §1

[2] = compound: COc1cc2nc(-c3cc(F)ccc3O)nc(N[C@@H]3CNC[C@H]3C(C)(C)O)c2cc1OC
Procedure, shortened: as §1

gefitinib = compound: COc1cc2ncnc(Nc3ccc(F)c(Cl)c3)c2cc1OCCCN1CCOCC1 [gefitinib]
Procedure, shortened: as §1

[3] = compound: COc1cccc2cc(-c3nc([C@H]4CC[C@H](C(=O)O)CC4)n4ncnc(N)c34)[nH]c12
Procedure, shortened: as §1

lapatinib = compound: CS(=O)(=O)CCNCc1ccc(-c2ccc3ncnc(Nc4ccc(OCc5cccc(F)c5)c(Cl)c4)c3c2)o1 [lapatinib]
Procedure, shortened: as §1

pictilisib = compound: CS(=O)(=O)N1CCN(Cc2cc3nc(-c4cccc5[nH]ncc45)nc(N4CCOCC4)c3s2)CC1 [pictilisib]
Procedure, shortened: as §1

Target	log2 fold change [1]	log2 fold change (filanesib)	log2 fold change (zotarolimus)	log2 fold change (idasanutlin)	log2 fold change (alisertib)	log2 fold change [2]	log2 fold change (gefitinib)	log2 fold change [3]	log2 fold change (lapatinib)	log2 fold change (pictilisib)
GALM (UniProt Q96C23)	inactive: -0.019	inactive: -0.081	inactive: 0.001	inactive: -0.068	inactive: -0.114	inactive: 0.006	inactive: 0.06	inactive: -0.044	inactive: -0.033	inactive: 0.058
GDPD1 (UniProt Q8N9F7)	active: 0.353	inactive: 0.056	inactive: 0.13	inactive: 0.156	inactive: -0.068	inactive: 0.208	inactive: 0.067	inactive: 0.021	inactive: 0.04	inactive: 0.085
GHDC (UniProt Q8N2G8)	inactive: -0.026	inactive: -0.127	inactive: 0.021	inactive: 0.061	inactive: -0.057	inactive: -0.13	inactive: 0.037	inactive: 0.087	inactive: 0.042	inactive: 0.042
GCAT isoform 2 (UniProt O75600)	inactive: -0.147	inactive: -0.132	inactive: 0.04	inactive: 0.125	inactive: 0.022	inactive: -0.113	inactive: 0.068	inactive: 0.009	inactive: -0.02	inactive: 0.105
FUCA1 (UniProt P04066)	inactive: -0.014	inactive: -0.057	inactive: -0.025	inactive: -0.044	inactive: -0.004	inactive: -0.113	inactive: 0.003	inactive: 0.1	inactive: 0.047	inactive: 0
FUBP1 isoform 2 (UniProt Q96AE4)	inactive: -0.011	inactive: -0.016	inactive: -0.03	inactive: 0.001	inactive: -0.035	inactive: 0.04	inactive: 0.007	inactive: 0.045	inactive: -0.018	inactive: 0.015
GABARAPL1 isoform 2 (UniProt Q9H0R8)	inactive: 0.053	inactive: -0.054	inactive: 0.024	inactive: -0.112	inactive: 0.024	inactive: 0.007	inactive: 0.021	inactive: -0.01	inactive: -0.026	inactive: 0.115
GAB1 isoform 2 (UniProt Q13480)	inactive: -0.161	inactive: -0.034	inactive: -0.117	inactive: 0.008	inactive: 0.03	inactive: -0.08	inactive: 0	inactive: 0.023	inactive: 0.032	inactive: -0.142
FXR1 (UniProt P51114)	inactive: -0.068	inactive: 0.383	inactive: 0.069	inactive: 0.304	inactive: -0.143	inactive: -0.109	inactive: 0.005	inactive: -0.225	inactive: 0.09	inactive: -0.05
GGPS1 (UniProt O95749)	inactive: -0.044	inactive: 0.013	inactive: -0.023	inactive: 0.015	inactive: -0.058	inactive: -0.001	inactive: 0.016	inactive: 0.088	inactive: -0.02	inactive: 0.06
GAK (UniProt O14976)	inactive: -0.013	inactive: 0.024	inactive: 0.033	inactive: -0.748	inactive: -0.025	inactive: 1.44	inactive: 0.84	inactive: -0.107	inactive: 0.143	inactive: 0.226
GGT7 (UniProt Q9UJ14)	inactive: 0.044	inactive: 0.081	inactive: -0.03	inactive: -0.039	inactive: -0.07	inactive: -0.098	inactive: 0.055	inactive: 0.05	inactive: -0.062	inactive: 0.143
GABARAPL2 (UniProt P60520)	inactive: 0.185	inactive: -0.01	inactive: -0.036	inactive: -0.072	inactive: 0.016	inactive: 0.033	inactive: -0.014	inactive: 0	inactive: -0.006	inactive: -0.059
GGT2 isoform 3 (UniProt P36268)	inactive: -0.023	inactive: 0.054	inactive: -0.035	inactive: 0.108	inactive: -0.111	inactive: 0.032	inactive: 0.032	inactive: 0.052	inactive: 0.025	inactive: 0.034
GALK2 (UniProt Q01415)	inactive: -0.03	inactive: -0.046	inactive: -0.011	inactive: -0.073	inactive: -0.054	inactive: -0.012	inactive: 0.005	inactive: 0.068	inactive: -0.027	inactive: 0.088
FRA10AC1 isoform 3 (UniProt Q70Z53)	inactive: -0.022	inactive: 0.179	inactive: -0.049	inactive: -0.319	inactive: -0.033	inactive: 0.068	inactive: 0	inactive: -0.005	inactive: -0.064	inactive: -0.11
GALNT2 (UniProt Q10471)	inactive: 0.018	inactive: -0.025	inactive: 0.043	inactive: -0.065	inactive: -0.03	inactive: -0.042	inactive: 0.059	inactive: -0.012	inactive: 0.036	inactive: -0.01
FOXK1 (UniProt P85037)	inactive: -0.002	inactive: 0.361	active: 1	inactive: -0.123	inactive: -0.038	inactive: 0.526	inactive: 0.516	inactive: 0.774	inactive: 0.085	inactive: 0.584
GGA1 isoform 6 (UniProt Q9UJY5)	inactive: -0.036	inactive: 0.036	inactive: 0.007	inactive: -0.05	inactive: -0.014	inactive: 0.03	inactive: 0.031	inactive: 0.063	inactive: 0.023	inactive: 0.054
GAMT (UniProt Q14353)	inactive: 0.129	inactive: 0.037	inactive: 0.181	inactive: 0.212	inactive: -0.161	inactive: 0.075	inactive: 0.039	inactive: 0.069	inactive: -0.251	inactive: 0.124
GGNBP2 (UniProt Q9H3C7)	inactive: -0.14	inactive: -0.046	inactive: 0.195	inactive: -0.037	inactive: 0.052	inactive: -0.01	inactive: 0.108	inactive: 0.193	inactive: 0.034	inactive: 0.004
GAN (UniProt Q9H2C0)	inactive: -0.009	inactive: -0.102	inactive: 0.018	inactive: -0.141	inactive: 0.113	inactive: -0.011	inactive: 0.048	inactive: 0.095	inactive: -0.003	inactive: 0.063
GFPT1 (UniProt Q06210)	inactive: 0.023	inactive: -0.072	inactive: 0.015	inactive: -0.012	inactive: -0.027	inactive: -0.024	inactive: -0.005	inactive: 0.042	inactive: 0.026	inactive: 0.063
GCDH (UniProt Q92947)	inactive: 0.02	inactive: -0.081	inactive: 0.027	inactive: -0.066	inactive: -0.066	inactive: -0.011	inactive: 0.042	inactive: 0.016	inactive: -0.004	inactive: -0.02
FRG1 (UniProt Q14331)	inactive: -0.212	inactive: 0.207	inactive: -0.017	inactive: 0.117	inactive: -0.044	inactive: 0.053	inactive: 0.012	inactive: -0.017	inactive: 0.039	inactive: -0.044
GHITM (UniProt Q9H3K2)	inactive: 0.056	inactive: -0.072	inactive: -0.035	inactive: -0.124	inactive: -0.009	inactive: -0.18	inactive: -0.006	inactive: 0.064	inactive: -0.007	inactive: 0.037
FNTB (UniProt P49356)	inactive: 0.088	inactive: 0.26	inactive: 0.159	inactive: -0.024	inactive: -0.074	inactive: -0.057	inactive: 0.02	inactive: 0.024	inactive: 0.18	inactive: -0.165
FXR2 (UniProt P51116)	inactive: 0.157	inactive: 0.04	inactive: 0.119	inactive: 0.282	inactive: -0.159	inactive: -0.003	inactive: -0.02	inactive: -0.179	inactive: -0.01	inactive: 0.039
GANAB isoform 2 (UniProt Q14697)	inactive: 0.019	inactive: 0.038	inactive: 0.052	inactive: 0.022	inactive: -0.128	inactive: -0.001	inactive: -0.017	inactive: -0.079	inactive: 0.039	inactive: -0.083

7 entries from above, set out differently.

| Target | log2 fold change [1] | log2 fold change (filanesib) | log2 fold change (zotarolimus) | log2 fold change (idasanutlin) | log2 fold change (alisertib) | log2 fold change [2] | log2 fold change (gefitinib) | log2 fold change [3] | log2 fold change (lapatinib) | log2 fold change (pictilisib) |
| --- | --- | --- | --- | --- | --- | --- | --- | --- | --- | --- |
| GAN (UniProt Q9H2C0) | inactive: -0.009 | inactive: -0.102 | inactive: 0.018 | inactive: -0.141 | inactive: 0.113 | inactive: -0.011 | inactive: 0.048 | inactive: 0.095 | inactive: -0.003 | inactive: 0.063 |
| GFPT1 (UniProt Q06210) | inactive: 0.023 | inactive: -0.072 | inactive: 0.015 | inactive: -0.012 | inactive: -0.027 | inactive: -0.024 | inactive: -0.005 | inactive: 0.042 | inactive: 0.026 | inactive: 0.063 |
| GCDH (UniProt Q92947) | inactive: 0.02 | inactive: -0.081 | inactive: 0.027 | inactive: -0.066 | inactive: -0.066 | inactive: -0.011 | inactive: 0.042 | inactive: 0.016 | inactive: -0.004 | inactive: -0.02 |
| FRG1 (UniProt Q14331) | inactive: -0.212 | inactive: 0.207 | inactive: -0.017 | inactive: 0.117 | inactive: -0.044 | inactive: 0.053 | inactive: 0.012 | inactive: -0.017 | inactive: 0.039 | inactive: -0.044 |
| GHITM (UniProt Q9H3K2) | inactive: 0.056 | inactive: -0.072 | inactive: -0.035 | inactive: -0.124 | inactive: -0.009 | inactive: -0.18 | inactive: -0.006 | inactive: 0.064 | inactive: -0.007 | inactive: 0.037 |
| FNTB (UniProt P49356) | inactive: 0.088 | inactive: 0.26 | inactive: 0.159 | inactive: -0.024 | inactive: -0.074 | inactive: -0.057 | inactive: 0.02 | inactive: 0.024 | inactive: 0.18 | inactive: -0.165 |
| FXR2 (UniProt P51116) | inactive: 0.157 | inactive: 0.04 | inactive: 0.119 | inactive: 0.282 | inactive: -0.159 | inactive: -0.003 | inactive: -0.02 | inactive: -0.179 | inactive: -0.01 | inactive: 0.039 |

From the supplement of paper PMC10849652
